This is an account of results in PubChem BioAssay AID256 (DTP/NCI, 2004).

The subject of the test is CD2F1 mice, L1210 leukemia ip, survival T/C. Description: NCI In Vivo Anticancer Drug Screen. Data for tumor model L1210 Leukemia (intraperitoneal) in CD2F1 (CDF1) mice. Conditions: higher T/C = longer survival. The gist of the method: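 Ratio T/C, where T is the treated-group value and C the vehicle-dosed control value, from mice implanted with a transplantable tumor.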

Where [1] appears, read: T/C endpoint: mean survival time, dose: 400.0 mg/kg/injection, schedule: Q04DX003 (ip), vehicle: saline with Tween-80.
Where [2] appears, read: T/C endpoint: median survival time, dose: 12.5 mg/kg/injection, schedule: Q01DX009 (ip), vehicle: saline with Tween-80.

Molecules are shown by their SMILES. The list does not hold the whole screen: it is rich in T/C values a quarter to a half above the control, in often repeated tests (any T/C) and in doses without a T/C. Further doses and runs are listed elsewhere. T/C: endpoint of the treated group in % of that of the vehicle group. Some entries give survivors of the animals treated and no T/C: the source files T/C as zero there, which appears to mark a toxic dose or a test without result, not a measured value. Some doses without a T/C left all or most animals alive at the check, yet need not have been tolerated: survival well below the control is almost never listed, so the zero probably covers shortened survival too. Counts of survivors are from the toxicity check (mostly the fifth day) where no day follows; animals may have died later. Schedule codes are those of the source, taken here to give the interval after Q, in days (D) or hours (H), and the number of doses after X. Some entries were tested several times; the values are given in rising order. Where survival is the endpoint, the PubChem record calls one and a half times the control and up active, and a quarter to a half above the control has no call in these data; cut-offs in other NCI protocols can differ. Some T/C values are followed by the survivors on the day toxicity was checked, most often the fifth; where none is given, no animal had died by that day.

`COC12[C@@H]3N[C@@H]3CN1C1=C(C(=O)C(NCCSSCCNC3=C(C)C(=O)C4=C(C3=O)C(COC(N)=O)[C@]3(OC)C5N[C@@H]5CN43)=C(C)C1=O)[C@@H]2COC(N)=O` (stereo partly drawn): the T/C (T/C endpoint: mean survival time, dose: 3.0 mg/kg/injection, schedule: Q01DX001 (ip), vehicle: distilled water + Tween-80) is 125 % of control; the T/C (T/C endpoint: mean survival time, dose: 6.0 mg/kg/injection, schedule: Q01DX001 (ip), vehicle: distilled water + Tween-80) is 127 % of control; the T/C (T/C endpoint: median survival time, dose: 0.4 mg/kg/injection, schedule: Q01DX009 (ip), vehicle: other) is 132 % of control; the T/C (T/C endpoint: median survival time, dose: 0.8 mg/kg/injection, schedule: Q01DX009 (ip), vehicle: other) was 140 % of control; the T/C (T/C endpoint: median survival time, dose: 1.6 mg/kg/injection, schedule: Q01DX001 (ip), vehicle: other) was 140 % of control; the T/C (T/C endpoint: median survival time, dose: 1.6 mg/kg/injection, schedule: Q01DX009 (ip), vehicle: other) is 145 % of control. Further, the T/C was 145 % of control (T/C endpoint: median survival time, dose: 1.6 mg/kg/injection, schedule: Q03DX003 (ip), vehicle: other); 143 % of control (T/C endpoint: median survival time, dose: 1.6 mg/kg/injection, schedule: Q04DX003 (ip), vehicle: other); 143 % of control (T/C endpoint: median survival time, dose: 3.2 mg/kg/injection, schedule: Q01DX001 (ip), vehicle: other); 149 % of control (T/C endpoint: median survival time, dose: 6.4 mg/kg/injection, schedule: Q01DX001 (ip), vehicle: other); 145 % of control (T/C endpoint: median survival time, dose: 9.6 mg/kg/injection, schedule: Q03DX003 (ip), vehicle: other); 142 % of control (T/C endpoint: median survival time, dose: 12.8 mg/kg/injection, schedule: Q01DX001 (ip), vehicle: other). Besides, the T/C (T/C endpoint: median survival time, dose: 12.8 mg/kg/injection, schedule: Q04DX003 (ip), vehicle: other) was 144 % of control. Moreover, the survivor count (T/C endpoint: mean survival time, dose: 24.0 mg/kg/injection, schedule: Q01DX001 (ip), vehicle: distilled water + Tween-80) is reported as 5 of 6.

In the case of `COc1ccc(CC2C(=O)NC(C)C(=O)N(C)C3C(=O)N(C)C(Cc4ccc(O)c(c4)Oc4ccc(cc4)C3O)C(=O)NC(C)C(=O)NC(C)C(=O)N2C)cc1` (stereo not drawn), the T/C (T/C endpoint: mean survival time, dose: 0.5 mg/kg/injection, schedule: Q01DX009 (ip), vehicle: saline) is 129 % of control. The survivor count was 3 of 6 (T/C endpoint: mean survival time, dose: 4.0 mg/kg/injection, schedule: Q01DX009 (ip), vehicle: Klucel (hydroxypropylcellulose) (HPC)); 0 of 6 and 6 of 6 (T/C endpoint: mean survival time, dose: 8.0 mg/kg/injection, schedule: Q01DX009 (ip), vehicle: Klucel (hydroxypropylcellulose) (HPC)).

With `CC(C)OC(=O)c1cc([N+](=O)[O-])c(Sc2ncnc3nc[nH]c23)c([N+](=O)[O-])c1`, the T/C (T/C endpoint: mean survival time, dose: 9.9 mg/kg/injection, schedule: Q01DX005 (ip), vehicle: other) is 137 % of control [5 of 6 alive]; the T/C (T/C endpoint: mean survival time, dose: 10.0 mg/kg/injection, schedule: Q01DX005 (ip), vehicle: other) is 129 % of control; the T/C (T/C endpoint: mean survival time, dose: 14.8 mg/kg/injection, schedule: Q01DX005 (ip), vehicle: other) is 125 and 143 % of control; the T/C (T/C endpoint: mean survival time, dose: 22.2 mg/kg/injection, schedule: Q01DX005 (ip), vehicle: other) is 129 and 142 % of control [5 of 6 alive]; the T/C (T/C endpoint: mean survival time, dose: 33.4 mg/kg/injection, schedule: Q01DX005 (ip), vehicle: other) is 129 % of control.

As for `CN(C)CC(=O)N/N=C\c1ccc([N+](=O)[O-])s1`, where the note is “T/C endpoint: mean survival time, dose: 200.0 mg/kg/injection, schedule: Q01DX009 (ip), vehicle: saline”, the survivor count is 2 of 6.

With `CCC(c1ccc(O)c(CN(CC)CC)c1)C(CC)c1ccc(O)c(CN(CC)CC)c1` (stereo not drawn), the survivor count (T/C endpoint: mean survival time, dose: 400.0 mg/kg/injection, schedule: Q04DX002 (ip), vehicle: saline with Tween-80) is listed as 0 of 3.

In the case of `COc1cccc2c1C(=O)c1c(O)c3c(c(O)c1C2=O)C[C@@](O)(C(=O)CO)C[C@@H]3OC1CC(OC(C)=O)C(OC(C)=O)C(C)O1` (stereo partly drawn), the T/C is, setting by setting: (T/C endpoint: mean survival time, dose: 3.12 mg/kg/injection, schedule: Q01DX009 (ip), vehicle: distilled water + Tween-80) 129 and 131 % of control; (T/C endpoint: mean survival time, dose: 6.25 mg/kg/injection, schedule: Q01DX009 (ip), vehicle: distilled water + Tween-80) 147 and 148 % of control; (T/C endpoint: mean survival time, dose: 12.5 mg/kg/injection, schedule: Q01DX009 (ip), vehicle: distilled water + Tween-80) 133 % of control; (T/C endpoint: median survival time, dose: 1.57 mg/kg/injection, schedule: Q01DX009 (ip), vehicle: distilled water + Tween-80) 125 % of control; (T/C endpoint: median survival time, dose: 3.12 mg/kg/injection, schedule: Q01DX009 (ip), vehicle: distilled water + Tween-80) 137 % of control [9 of 10 alive]; (T/C endpoint: median survival time, dose: 3.13 mg/kg/injection, schedule: Q01DX009 (ip), vehicle: distilled water + Tween-80) 133 % of control. The survivor count reads like this: (T/C endpoint: mean survival time, dose: 25.0 mg/kg/injection, schedule: Q01DX009 (ip), vehicle: distilled water + Tween-80) 10 of 10; (T/C endpoint: mean survival time, dose: 50.0 mg/kg/injection, schedule: Q01DX009 (ip), vehicle: distilled water + Tween-80) 9 of 10 and 6 of 6; (T/C endpoint: mean survival time, dose: 100.0 mg/kg/injection, schedule: Q01DX009 (ip), vehicle: distilled water + Tween-80) 10 of 10 and 6 of 6.

With `CC(=O)O[C@@H]1C[C@H](C)CC[C@H]1C(C)C`, under setting [1], the survivor count is 6 of 6.

As for `CN(C)C1CCCCC1[N+](C)(C)C` (stereo not drawn), the survivor count (T/C endpoint: mean survival time, dose: 100.0 mg/kg/injection, schedule: Q04DX003 (ip), vehicle: saline with Tween-80) is on record as 0 of 6; the survivor count (T/C endpoint: mean survival time, dose: 200.0 mg/kg/injection, schedule: Q04DX003 (ip), vehicle: saline with Tween-80) is reported as 0 of 6; the survivor count under setting [1] is on record as 0 of 6.

`COC(=O)N/N=C/Cc1ccccc1`: the survivor count by setting is: (T/C endpoint: mean survival time, dose: 200.0 mg/kg/injection, schedule: Q01DX009 (ip), vehicle: saline with Tween-80) 2 of 6; (T/C endpoint: mean survival time, dose: 400.0 mg/kg/injection, schedule: Q01DX009 (ip), vehicle: saline with Tween-80) 0 of 6.

`CN(C)c1ccc(N=Nc2ccc(S(=O)(=O)O)cc2)cc1.CN(C)c1ccc(N=Nc2ccc(S(=O)(=O)O)cc2)cc1.[NH-]C1CCCCC1[NH-].[Pt+2]`: the T/C is 139 % of control (T/C endpoint: median survival time, dose: 6.25 mg/kg/injection, schedule: Q04DX003 (ip), vehicle: saline) and 139 % of control (T/C endpoint: median survival time, dose: 100.0 mg/kg/injection, schedule: Q04DX003 (ip), vehicle: saline). For the same compound, the survivor count (T/C endpoint: median survival time, dose: 200.0 mg/kg/injection, schedule: Q04DX003 (ip), vehicle: saline) is reported as 2 of 6.

On to `CS(=O)(=O)CS(=O)(=O)OCCCl`, for which the T/C under setting [2] was 140 % of control. For the same compound, the survivor count reads like this: (T/C endpoint: median survival time, dose: 100.0 mg/kg/injection, schedule: Q01DX009 (ip), vehicle: saline with Tween-80) 4 of 6; (T/C endpoint: median survival time, dose: 200.0 mg/kg/injection, schedule: Q01DX009 (ip), vehicle: saline with Tween-80) 0 of 6; (T/C endpoint: median survival time, dose: 200.0 mg/kg/injection, schedule: Q01DX009 (ip), vehicle: saline) 0 of 6.

`N#CCN1CCc2ccccc2C1`: the survivor count (T/C endpoint: mean survival time, dose: 400.0 mg/kg/injection, schedule: Q04DX003 (ip), vehicle: Klucel (hydroxypropylcellulose) (HPC)) is on record as 5 of 6.

Take `CC(=O)Nc1cc2c3c(c1)CCN3CCC2`: the survivor count by setting is: (T/C endpoint: mean survival time, dose: 50.0 mg/kg/injection, schedule: Q01DX001 (ip), vehicle: saline with Tween-80) 0 of 6; (T/C endpoint: mean survival time, dose: 100.0 mg/kg/injection, schedule: Q01DX001 (ip), vehicle: saline with Tween-80) 0 of 6; (T/C endpoint: mean survival time, dose: 200.0 mg/kg/injection, schedule: Q01DX001 (ip), vehicle: saline with Tween-80) 0 of 6; (T/C endpoint: mean survival time, dose: 400.0 mg/kg/injection, schedule: Q01DX001 (ip), vehicle: saline with Tween-80) 0 of 6.

For `CN(CCCCl)CCCCl`, the survivor count is, setting by setting: (T/C endpoint: mean survival time, dose: 150.0 mg/kg/injection, schedule: Q01DX001 (ip), vehicle: saline) 1 of 6; (T/C endpoint: mean survival time, dose: 300.0 mg/kg/injection, schedule: Q01DX001 (ip), vehicle: saline) 0 of 6.

As to `O=C1C=CC(n2cc(F)c(=O)[nH]c2=O)O1` (stereo not drawn), the T/C is 139 % of control under setting [2]; 125 % of control (T/C endpoint: median survival time, dose: 12.5 mg/kg/injection, schedule: Q01DX009 (ip), vehicle: saline); 145 % of control (T/C endpoint: median survival time, dose: 25.0 mg/kg/injection, schedule: Q01DX009 (ip), vehicle: saline with Tween-80); 141 % of control (T/C endpoint: median survival time, dose: 25.0 mg/kg/injection, schedule: Q01DX009 (ip), vehicle: saline); 142 % of control (T/C endpoint: median survival time, dose: 50.0 mg/kg/injection, schedule: Q01DX009 (ip), vehicle: saline with Tween-80).
